{
  "sequences": {"note": "Sequences of proteins named here, by UniProt entry; tags and fusion partners are left off.", "UniProt P08183, whole entry, looked up": "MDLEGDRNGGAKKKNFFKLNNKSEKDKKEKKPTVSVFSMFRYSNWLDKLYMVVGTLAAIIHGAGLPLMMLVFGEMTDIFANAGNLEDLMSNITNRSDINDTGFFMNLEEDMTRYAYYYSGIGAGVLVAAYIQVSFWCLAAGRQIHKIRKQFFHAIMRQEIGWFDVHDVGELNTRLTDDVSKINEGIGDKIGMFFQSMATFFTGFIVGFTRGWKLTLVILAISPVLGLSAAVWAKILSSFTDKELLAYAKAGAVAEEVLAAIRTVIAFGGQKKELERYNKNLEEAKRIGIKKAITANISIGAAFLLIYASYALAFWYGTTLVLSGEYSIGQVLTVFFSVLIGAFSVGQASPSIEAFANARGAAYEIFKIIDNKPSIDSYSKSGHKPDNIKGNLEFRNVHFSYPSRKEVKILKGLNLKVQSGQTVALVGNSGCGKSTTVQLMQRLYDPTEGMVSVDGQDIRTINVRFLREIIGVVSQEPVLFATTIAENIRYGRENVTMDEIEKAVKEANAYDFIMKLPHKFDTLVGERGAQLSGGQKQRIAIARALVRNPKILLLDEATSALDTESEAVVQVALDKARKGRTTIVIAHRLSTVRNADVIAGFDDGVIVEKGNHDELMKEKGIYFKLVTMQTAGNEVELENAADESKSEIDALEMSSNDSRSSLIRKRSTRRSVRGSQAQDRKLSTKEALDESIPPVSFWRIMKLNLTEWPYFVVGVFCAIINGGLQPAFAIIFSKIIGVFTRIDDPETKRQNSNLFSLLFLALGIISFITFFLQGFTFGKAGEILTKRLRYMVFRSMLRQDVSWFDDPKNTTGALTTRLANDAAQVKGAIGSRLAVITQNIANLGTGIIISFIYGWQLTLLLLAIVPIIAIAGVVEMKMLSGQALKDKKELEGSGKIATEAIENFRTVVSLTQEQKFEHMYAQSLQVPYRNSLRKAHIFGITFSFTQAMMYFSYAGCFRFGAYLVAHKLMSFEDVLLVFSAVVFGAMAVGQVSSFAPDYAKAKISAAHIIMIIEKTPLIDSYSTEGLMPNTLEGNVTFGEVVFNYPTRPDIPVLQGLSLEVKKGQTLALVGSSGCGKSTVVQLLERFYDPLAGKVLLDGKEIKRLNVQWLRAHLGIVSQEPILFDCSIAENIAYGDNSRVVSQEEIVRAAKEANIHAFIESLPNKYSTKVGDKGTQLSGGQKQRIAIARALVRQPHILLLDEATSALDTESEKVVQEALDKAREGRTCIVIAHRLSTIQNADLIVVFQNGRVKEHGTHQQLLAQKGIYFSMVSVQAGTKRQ"},
  "source": "PubChem BioAssay",
  "key": {"[1]": {"test": "growth inhibition of DIPG glioma cells, dose response, cell-based, SU-DIPG-XVII, MIPE5.0, CellTiter-Glo, qHTS (AID 1347060);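 for AC50: cells exposed to compound for 48 hours before viability readout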", "conditions": "SU-DIPG-XVII viability, CellTiter-Glo ATP luminescence"}, "[2]": {"test": "growth inhibition of DIPG glioma cells, dose response, cell-based, SU-DIPG-XIII, MIPE4.0, CellTiter-Glo, qHTS (AID 1347061; cut-off not given, nearly all actives have AC50 up to about 37 µM;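 note: cells exposed to compound for 48 hours before readout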)", "conditions": "SU-DIPG-XIII viability, CellTiter-Glo ATP luminescence"}, "[3]": {"test": "growth inhibition of DIPG glioma cells, dose response, cell-based, JHH-DIPG-1, MIPE4.0, CellTiter-Glo, qHTS (AID 1347062; cut-off not given, nearly all actives have AC50 up to about 27 µM;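 for AC50: cells exposed to compound for two days before readout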)", "conditions": "JHH-DIPG-1 viability, CellTiter-Glo ATP luminescence"}, "[4]": {"test": "growth inhibition of DIPG glioma cells, dose response, cell-based, SU-DIPG-IV, MIPE4.0, CellTiter-Glo, qHTS (AID 1347063; cut-off not given, nearly all actives have AC50 up to about 30 µM;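 note: compound exposure lasted 48 hours before the viability readout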)", "conditions": "SU-DIPG-IV viability, CellTiter-Glo ATP luminescence"}, "[5]": {"test": "growth inhibition of DIPG glioma cells, dose response, cell-based, SU-DIPG-XIII, MIPE5.0, CellTiter-Glo, qHTS (AID 1347064; cut-off not given, nearly all actives have AC50 up to about 23 µM;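 for AC50: cells exposed to compound for 48 hours before the viability read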)", "conditions": "SU-DIPG-XIII viability, CellTiter-Glo ATP luminescence"}, "[6]": {"test": "viability loss in pontine glioma line – cell-based, SU-DIPG-XXV, MIPE5.0, CellTiter-Glo, qHTS, dose response (AID 1347065);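 note: cells exposed to compound for 48 hours before ATP readout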", "conditions": "CellTiter-Glo ATP luminescence"}, "[7]": {"test": "JHH-DIPG-1 glioma cell viability, MIPE5.0 library, CellTiter-Glo luminescence, qHTS (AID 1347067);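 note: cells exposed to compound for 48 hours before readout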", "conditions": "JHH-DIPG-1 glioma viability, CellTiter-Glo ATP luminescence"}, "[8]": {"test": "SU-DIPG-XXV glioma cell viability, MIPE5.0 library, qHTS (AID 1347068; cut-off not given, nearly all actives have IC50 up to about 30 µM;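 for IC50: cells exposed to compound for 48 hours before viability readout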)"}, "[9]": {"test": "inhibitors of polyQ aggregate elongation, biochemical, solid-phase synthetic aggregates, QA3 (AID 1585; call rule not given here)", "conditions": "biotin-polyQ incorporation, at 100 µM, hits give high values"}, "[10]": {"test": "polyglutamine aggregation reduction, turbidity readout, qthio, single concentration 25 µM screen (AID 1588; call rule not given here)", "conditions": "at 25 µM, hits give low values"}, "[11]": {"test": "protection of motor neurons from glutamate death, cell-based, TUNEL DNA degradation staining, MNGlu (AID 1594; call rule not given here)", "conditions": "glutamate-induced death, at 1 µM, hits give high values"}, "[12]": {"test": "enhancers of SMN2 over SMN1 splicing, cell-based, SMN2/SMN1 luciferase reporters (AID 1598; call rule not given here)", "conditions": "SMN2 vs SMN1 luciferase splicing reporter cells; at 10 µM; hits give high values"}, "[13]": {"test": "SU-DIPG-VI glioma cell viability, MIPE4.0 library, CellTiter-Glo luminescence, qHTS (AID 1347066; cut-off not given, nearly all actives have AC50 up to about 30 µM;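 note: cells exposed to compound for 48 hours before readout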)", "conditions": "CellTiter-Glo ATP luminescence"}, "[14]": {"target": "ATP-dependent translocase ABCB1 (Homo sapiens) (UniProt P08183)", "test": "MDR1 (ABCB1) efflux transporter inhibition, cell-based (AID 377; in the data active = fluorescence slope change above about 50%; inconclusive = mostly about 31% to 49%)", "conditions": "MDR1-expressing cells, fluorescent substrate accumulation slope; hits give high values; concentration not given here"}},
  "note": "The shares of active, inactive and inconclusive entries below differ from those in the screen. For part of these data: Potencies of inconclusive entries are doubtful fits and often do not repeat. Active and inactive are the calls of the source. Unless noted, no cut-off is given here; in the data, nearly all actives have AC50 up to about 26 µM.",
  "data": [
    {"smiles": "CCC[C@H](N[C@@H](C)C(=O)N1[C@H](C(=O)O)C[C@@H]2CCCC[C@@H]21)C(=O)OCC", "values": [
      {"measurement": "outcome", "setting": "[1]", "value": "inactive"},
      {"measurement": "AC50", "setting": "[2]", "value": "inconclusive: 20.9 µM [cytotoxic]"},
      {"measurement": "AC50", "setting": "[3]", "value": "inconclusive: 13.2 µM [cytotoxic]"},
      {"measurement": "AC50", "setting": "[4]", "value": "inconclusive: 1.05 µM [cytotoxic]"},
      {"measurement": "outcome", "setting": "[5]", "value": "inactive"},
      {"measurement": "outcome", "setting": "[6]", "value": "inactive"},
      {"measurement": "outcome", "setting": "[7]", "value": "inactive"},
      {"measurement": "outcome", "setting": "[8]", "value": "inactive"}
    ]},
    {"smiles": "COC(=O)Nc1nc2ccc(S(=O)c3ccccc3)cc2[nH]1", "note": "(centres undefined)", "values": [
      {"measurement": "AC50", "setting": "[1]", "value": "active: 18.6 µM"},
      {"measurement": "AC50", "setting": "[2]", "value": "inconclusive: 8.33 µM [cytotoxic]"},
      {"measurement": "AC50", "setting": "[3]", "value": "inconclusive: 14.8 µM [cytotoxic]"},
      {"measurement": "AC50", "setting": "[4]", "value": "inconclusive: 7.43 µM [cytotoxic]"},
      {"measurement": "AC50", "setting": "[5]", "value": "inconclusive: 18.6 µM [cytotoxic]"},
      {"measurement": "AC50", "setting": "[6]", "value": "inconclusive: 18.6 µM [cytotoxic]"},
      {"measurement": "AC50", "setting": "[7]", "value": "inconclusive: 20.9 µM [cytotoxic]"},
      {"measurement": "IC50", "setting": "[8]", "value": "inconclusive: 20.9 µM [cytotoxic]"}
    ]},
    {"smiles": "CCCC(CCC)C(=O)O", "values": [
      {"measurement": "inhibition", "setting": "[9]", "value": "inconclusive: 7.1%"},
      {"measurement": "aggregation (% of control)", "setting": "[10]", "value": "inconclusive: 109%"},
      {"measurement": "protection", "setting": "[11]", "value": "inconclusive: 36%"},
      {"measurement": "SMN2/SMN1 luciferase ratio", "setting": "[12]", "value": "inconclusive: 1.02"},
      {"measurement": "outcome", "setting": "[1]", "value": "inactive"},
      {"measurement": "outcome", "setting": "[2]", "value": "inactive"},
      {"measurement": "AC50", "setting": "[3]", "value": "inconclusive: 0.332 µM"},
      {"measurement": "AC50", "setting": "[4]", "value": "inconclusive: 0.00187 µM [cytotoxic]"},
      {"measurement": "AC50", "setting": "[5]", "value": "inconclusive: 20.9 µM"},
      {"measurement": "outcome", "setting": "[6]", "value": "inactive"}
    ]},
    {"smiles": "CCn1c(-c2nonc2N)nc2cnc(Oc3cccc(NC(=O)c4ccc(OCCN5CCOCC5)cc4)c3)cc21", "values": [
      {"measurement": "AC50", "setting": "[1]", "value": "inconclusive: 1.18 µM [cytotoxic]"},
      {"measurement": "AC50", "setting": "[2]", "value": "inconclusive: 13.2 µM [cytotoxic]"},
      {"measurement": "AC50", "setting": "[3]", "value": "inconclusive: 18.7 µM [cytotoxic]"},
      {"measurement": "AC50", "setting": "[4]", "value": "inconclusive: 7.43 µM [cytotoxic]"},
      {"measurement": "AC50", "setting": "[5]", "value": "inconclusive: 11.8 µM [cytotoxic]"},
      {"measurement": "AC50", "setting": "[6]", "value": "inconclusive: 0.661 µM [cytotoxic]"},
      {"measurement": "AC50", "setting": "[7]", "value": "inconclusive: 18.6 µM [cytotoxic]"},
      {"measurement": "IC50", "setting": "[8]", "value": "inconclusive: 2.35 µM [cytotoxic]"}
    ]},
    {"smiles": "COc1ccnc2[nH]cc(C(=O)C(=O)N3CCN(C(=O)c4ccccc4)C[C@H]3C)c12", "values": [
      {"measurement": "outcome", "setting": "[1]", "value": "inactive"},
      {"measurement": "outcome", "setting": "[2]", "value": "inactive"},
      {"measurement": "outcome", "setting": "[3]", "value": "inactive"},
      {"measurement": "outcome", "setting": "[4]", "value": "inactive"},
      {"measurement": "outcome", "setting": "[5]", "value": "inactive"},
      {"measurement": "AC50", "setting": "[13]", "value": "inconclusive: 0.00743 µM [cytotoxic]"}
    ]},
    {"smiles": "CN1CCC(=C2c3ccccc3C=Cc3ccccc32)CC1", "values": [
      {"measurement": "fluorescence slope change", "setting": "[14]", "value": "active: 178%"},
      {"measurement": "outcome", "setting": "[1]", "value": "inactive"},
      {"measurement": "AC50", "setting": "[2]", "value": "active: 23.5 µM"},
      {"measurement": "AC50", "setting": "[3]", "value": "inconclusive: 26.4 µM [cytotoxic]"},
      {"measurement": "AC50", "setting": "[4]", "value": "inconclusive: 16.6 µM [cytotoxic]"},
      {"measurement": "outcome", "setting": "[5]", "value": "inactive"},
      {"measurement": "outcome", "setting": "[6]", "value": "inconclusive"}
    ]},
    {"smiles": "COc1ccc(-c2cc(=O)c3c(O)cc(O)cc3o2)cc1O", "values": [
      {"measurement": "AC50", "setting": "[1]", "value": "inconclusive: 18.6 µM [cytotoxic]"},
      {"measurement": "AC50", "setting": "[2]", "value": "active: 11.8 µM"},
      {"measurement": "AC50", "setting": "[3]", "value": "inconclusive: 20.9 µM [cytotoxic]"},
      {"measurement": "AC50", "setting": "[4]", "value": "inconclusive: 18.7 µM [cytotoxic]"},
      {"measurement": "AC50", "setting": "[5]", "value": "inconclusive: 16.6 µM [cytotoxic]"},
      {"measurement": "AC50", "setting": "[6]", "value": "inconclusive: 26.3 µM [cytotoxic]"},
      {"measurement": "AC50", "setting": "[7]", "value": "inconclusive: 20.9 µM [cytotoxic]"},
      {"measurement": "IC50", "setting": "[8]", "value": "inconclusive: 105 µM [cytotoxic]"}
    ]},
    {"smiles": "CO[C@@H](C(=O)N1Cc2[nH]nc(NC(=O)c3ccc(N4CCN(C)CC4)cc3)c2C1)c1ccccc1", "values": [
      {"measurement": "AC50", "setting": "[1]", "value": "active: 0.525 µM"},
      {"measurement": "AC50", "setting": "[2]", "value": "active: 1.87 µM"},
      {"measurement": "AC50", "setting": "[3]", "value": "inconclusive: 0.105 µM [cytotoxic]"},
      {"measurement": "AC50", "setting": "[4]", "value": "inconclusive: 0.264 µM [cytotoxic]"},
      {"measurement": "AC50", "setting": "[5]", "value": "active: 1.05 µM"},
      {"measurement": "AC50", "setting": "[6]", "value": "active: 0.372 µM"},
      {"measurement": "AC50", "setting": "[7]", "value": "inconclusive: 0.166 µM [cytotoxic]"},
      {"measurement": "IC50", "setting": "[8]", "value": "inconclusive: 0.332 µM [cytotoxic]"}
    ]},
    {"smiles": "CC(C(C)N1CC(=O)NC(=O)C1)N1CC(=O)NC(=O)C1", "note": "(centres undefined)", "values": [
      {"measurement": "AC50", "setting": "[1]", "value": "inconclusive: 18.6 µM [cytotoxic]"},
      {"measurement": "outcome", "setting": "[2]", "value": "inactive"},
      {"measurement": "outcome", "setting": "[3]", "value": "inactive"},
      {"measurement": "outcome", "setting": "[4]", "value": "inactive"},
      {"measurement": "AC50", "setting": "[5]", "value": "inconclusive: 11.8 µM"},
      {"measurement": "AC50", "setting": "[6]", "value": "inconclusive: 16.6 µM [cytotoxic]"},
      {"measurement": "outcome", "setting": "[8]", "value": "inactive"}
    ]},
    {"smiles": "C#C[C@]1(O)CC[C@H]2[C@@H]3CCc4cc(O)ccc4[C@H]3CC[C@@]21C", "values": [
      {"measurement": "AC50", "setting": "[1]", "value": "active: 16.6 µM"},
      {"measurement": "AC50", "setting": "[2]", "value": "inconclusive: 18.7 µM [cytotoxic]"},
      {"measurement": "AC50", "setting": "[3]", "value": "inconclusive: 23.5 µM [cytotoxic]"},
      {"measurement": "AC50", "setting": "[4]", "value": "inconclusive: 18.7 µM [cytotoxic]"},
      {"measurement": "outcome", "setting": "[5]", "value": "inactive"},
      {"measurement": "AC50", "setting": "[6]", "value": "active: 13.2 µM"},
      {"measurement": "AC50", "setting": "[7]", "value": "inconclusive: 16.6 µM [cytotoxic]"},
      {"measurement": "IC50", "setting": "[8]", "value": "inconclusive: 23.5 µM [cytotoxic]"}
    ]},
    {"smiles": "CC1CNc2c(cccc2S(=O)(=O)N[C@@H](CCCN=C(N)N)C(=O)N2CC[C@@H](C)C[C@@H]2C(=O)O)C1", "note": "(some centres undefined)", "values": [
      {"measurement": "AC50", "setting": "[1]", "value": "inconclusive: 37.2 µM [cytotoxic]"},
      {"measurement": "AC50", "setting": "[2]", "value": "inconclusive: 11.8 µM [cytotoxic]"},
      {"measurement": "AC50", "setting": "[3]", "value": "inconclusive: 11.8 µM [cytotoxic]"},
      {"measurement": "AC50", "setting": "[4]", "value": "inconclusive: 10.5 µM [cytotoxic]"},
      {"measurement": "outcome", "setting": "[5]", "value": "inactive"},
      {"measurement": "outcome", "setting": "[13]", "value": "inactive"}
    ]}
  ]
}
